Test results published in patent US10550153B2 (Tokyo University of Pharmacy & Life Sciences, priority 2017, dated 2020).
[ ]: non-standard residue; d: D form. The star is where a group is joined. Propanoyl(3-cHex) = O=C(CCC1CCCCC1)*; Dab = NCC[C@H](N)C(=O)O

Assay: general procedure: Fmoc solid-phase peptide synthesis; Rink Amide resin (0.58 mmol/g, WATANABE CHEMICAL INDUSTRIES, LTD.)
Conditions: whole synthesis; for isolated yield: scale of the general procedure 0.044 mmol (75 mg resin)

| Substance | isolated mass [mg] | isolated yield |
| --- | --- | --- |
| 3-Cyclohexylpropionyl-Leu-Leu-Ala(4-Pyri)-Pro-Arg-Asn-NH2 | 40.2 | yield 80% |
| 3-Cyclohexylpropionyl-Leu-Asn-Dbu-Pro-Arg-Asn-NH2 | 29.8 | yield 63% |
| 3-Cyclohexylpropionyl-Leu-Dbu-Dbu-Pro-Arg-Asn-NH2 | 37.8 | yield 66% |
| 3-Cyclohexylpropionyl-Leu-Thr-Dbu-Pro-Arg-Asn-NH2 | 20.8 | yield 81% |
| 3-Cyclohexylpropionyl-Asp-Leu-Dbu-Pro-Arg-Asn-NH2 | 35.2 | yield 74% |
| 3-Cyclohexylpropionyl-Leu-Leu-Ala(3-Pyri)-Pro-Arg-Asn-NH2 | 37.4 | yield 74% |
| 1-Hexanoyl-Cha-Leu-Leu-Dbu-Pro-Arg-Asn-NH2 | 33.4 | yield 64% |
| {Propanoyl(3-cHex)}-LL[Dab]PRN-NH2 (SMILES CC(C)C[C@H](NC(=O)CCC1CCCCC1)C(=O)N[C@@H](CC(C)C)C(=O)N[C@@H](CCN)C(=O)N1CCC[C@H]1C(=O)N[C@@H](CCCNC(=N)N)C(=O)N[C@@H](CC(N)=O)C(N)=O) | 39.9 | yield 79% |
| 3-Cyclohexylpropionyl-Leu-Leu-Ala(2-Pyri)-Pro-Arg-Asn-NH2 | 6.1 | yield 12% |
| 3-Cyclohexylpropionyl-Leu-Asp-Dbu-Pro-Arg-Asn-NH2 | 35.2 | yield 74% |
